About 22,000 (6.9%) of roughly 320,000 compounds were called active. The shares of active, inactive and inconclusive entries below differ from those in the screen. Calls follow the shape of the dose curve; as a rule, active = well fitted inhibition curve with a large enough effect; inconclusive = small, poorly fitted or top-dose-only effect, or another doubt; inactive = no such curve, though single readings can be large or run the other way. Potencies beside an inconclusive call are fits to weak or partial responses and may not hold up.
Test: Primary qHTS for delayed death inhibitors of the malarial parasite plastid, 96 hour incubation
Settings: P. falciparum luciferase reporter growth; series mostly up to 28.7 µM; activity change, negative = inhibition: at the top concentration
In short: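 P. falciparum expressing integrated firefly luciferase grown in erythrocytes (2% hematocrit, 0.05% parasitemia final) with compounds for 96 hours at 37 C, 5% CO2. Growth inhibition read as loss of luminescence after adding luciferase detection reagent.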
% is scaled to controls: 0 for no effect and ±100 for the full control effect; potency is read from the fitted curve at half-maximal effect.

Question: With `CC(C)(C)c1cc(-c2csc(Nc3ccccc3)[n+]2Cc2ccc(C(=O)O)cc2)cc(C(C)(C)C)c1O` as the molecule, how does the Potency read?
Answer: inconclusive: 11.7 µM [inhibitor, single point]

Question: For `CCN1CCN(C(=O)CS(=O)(=O)Cc2nc(-c3ccccc3C)oc2C)CC1`, which “activity change, negative = inhibition” value is on record?
Answer: inactive: 29.1%

Question: For `CCC(C)Sc1cccc(-c2nc3ccc(C)cn3c2NC2CCCCC2)c1` (centres undefined), which Potency is on record?
Answer: active: 13.1 µM

Question: With `CCOC(=O)C1CCN(c2c(NC3CCCCCCC3)c(=O)c2=O)CC1` as the molecule, how does the Potency read?
Answer: inconclusive: 9.28 µM [inhibitor, partial curve, poor fit]

Question: For `O=C1CC(N2CCN(Cc3ccc4c(c3)OCO4)CC2)C(=O)N1c1cccc2ccccc12` (centres undefined), which Potency is on record?
Answer: inconclusive: 11.7 µM [inhibitor, single point]

Question: For `O=S(=O)(c1ccccc1)N1CCN(c2nc(-c3cccnc3)nc3ccccc23)CC1`, which Potency is on record?
Answer: active: 8.28 µM

Question: For `Cc1ccc(S(=O)(=O)N(CC(=O)NCc2ccccn2)c2ccc(Cl)cc2)cc1`, which Potency is on record?
Answer: inconclusive: 11.7 µM [inhibitor, partial curve, poor fit]

Question: For `CCOC(=O)c1c(C)n(C)c2cc(Br)c(O)c(O)c12`, which Potency is on record?
Answer: inconclusive: 0.0029 µM [inhibitor, full curve, poor fit]

Question: With `Cc1cc(C)cc(C(=O)NCC(=O)N2CCN(C(c3ccccc3)c3ccccc3)CC2)c1` as the molecule, how does the “activity change, negative = inhibition” value read?
Answer: inactive: 22.4%

Question: For `Cc1ccc2c(c1)cc(CN(C(=O)N1CCOCC1)C1CCCC1)c1nnnn12`, which Potency is on record?
Answer: inconclusive: 11.7 µM [inhibitor, single point]

Question: With `CCOc1ccc(Nc2oc(-c3cccs3)nc2C#N)cc1` as the molecule, how does the “activity change, negative = inhibition” value read?
Answer: inactive: 183%

Question: Which “activity change, negative = inhibition” value does the source give for `COc1ccc(CC(=O)O/N=C(\N)c2cccc([N+](=O)[O-])c2)cc1` here?
Answer: inactive: 53.5%

Question: With `N=C1C(c2ccccc2)=C(O)C2CCc3ccccc3N12` (centres undefined) as the molecule, how does the Potency read?
Answer: inconclusive: 1.17 µM [inhibitor, partial curve, poor fit]

Question: Which Potency does the source give for `N#CCC1c2ccccc2CCN1C(=O)Nc1ccc(Cl)cc1` (centres undefined) here?
Answer: inconclusive: 9.28 µM [inhibitor, partial curve, poor fit]

Question: With `CCOc1cc(OCC)nc(S(C)(=O)=O)n1` as the molecule, how does the Potency read?
Answer: inconclusive: 9.28 µM [inhibitor, partial curve, poor fit]

Question: For `NC(=O)C1CCN(CC(=O)Nc2cccc(C(=O)Nc3cccc(C(F)(F)F)c3)c2)CC1`, which Potency is on record?
Answer: inconclusive: 0.104 µM [inhibitor, full curve]

Question: For `COc1cc(/C=N/NC(=O)c2cnn3c(C)cc(-c4ccccc4)nc23)ccc1O`, which Potency is on record?
Answer: inconclusive: 6.57 µM [inhibitor, partial curve]

Question: With `COc1ccc(CN(C)Cc2c(O)ccc3cc(Br)ccc23)cc1OC` as the molecule, how does the Potency read?
Answer: inconclusive: 10.4 µM [inhibitor, single point]

Question: For `Cc1c(C(=O)NCc2ccccc2)cnn1-c1ccccc1`, which Potency is on record?
Answer: inconclusive: 0.329 µM [inhibitor, partial curve, poor fit]

Question: Which Potency does the source give for `CC1(C)C2([N+](=O)[O-])CN3CC1([N+](=O)[O-])CN(C2)C3c1ccccc1` (centres undefined) here?
Answer: inconclusive: 0.0828 µM [inhibitor, full curve, poor fit]

Question: Which Potency does the source give for `COc1ccc(C(CC(=O)N2CCCC2)c2c(OC)cc(OC)c3c(-c4ccccc4)cc(=O)oc23)cc1` (centres undefined) here?
Answer: inconclusive: 2.94 µM [inhibitor, partial curve, poor fit]

Question: With `c1ccc(-c2[nH]ncc2CN2CCN(Cc3ccc4c(c3)OCO4)CC2)cc1` as the molecule, how does the “activity change, negative = inhibition” value read?
Answer: inactive: -32.3%

Question: With `CN(C)C(=O)COc1ccc(Br)cc1` as the molecule, how does the “activity change, negative = inhibition” value read?
Answer: inactive: 8.99%

Question: With `COc1cccc(-c2ncc3ccccc3c2COC(=O)c2ccc(C(F)(F)F)cc2)c1` as the molecule, how does the Potency read?
Answer: active: 2.94 µM

Question: With `O=[N+]([O-])c1ccc(C2[C@H]3C(c4ccccc4)=NC4(CCCC4)N23)cc1` (some centres undefined) as the molecule, how does the Potency read?
Answer: inconclusive: 5.86 µM [inhibitor, single point]

Question: Which “activity change, negative = inhibition” value does the source give for `O=c1[nH]c(-c2cccnc2)nc2sc(-c3ccccc3)cc12` here?
Answer: inactive: 56.9%

Question: Which Potency does the source give for `COc1cccc(NS(=O)(=O)NC(=O)c2c(C)[nH]c3ccccc23)c1` here?
Answer: inconclusive: 18.5 µM [inhibitor, single point]

Question: With `CCOc1ccc(NC(=S)Nc2ccc(F)cc2)cc1` as the molecule, how does the “activity change, negative = inhibition” value read?
Answer: inactive: -20.9%

Question: With `COc1ccccc1/C=C1\SC(=O)N(CCC(=O)NCCCn2ccnc2)C1=O` as the molecule, how does the Potency read?
Answer: inconclusive: 10.4 µM [inhibitor, single point]

Question: With `COc1cccc(C2/C(=C(\O)c3ccc4c(c3)OCCO4)C(=O)C(=O)N2Cc2cccnc2)c1` (centres undefined) as the molecule, how does the “activity change, negative = inhibition” value read?
Answer: inactive: 2.49%

Question: For `Cc1[nH]c2ccccc2c1C(=O)C(=O)Nc1ccc2c(c1)OCO2`, which Potency is on record?
Answer: inconclusive: 18.5 µM [inhibitor, single point]

Question: For `CC/C(=C/c1sc2ccccc2[n+]1CC)SC`, which Potency is on record?
Answer: active: 1.65 µM

Question: Which Potency does the source give for `O=C(NCC1COc2ccccc2O1)c1cccc(S(=O)(=O)N2CCN(c3ccccc3)CC2)c1` (centres undefined) here?
Answer: inconclusive: 10.4 µM [inhibitor, partial curve]

Question: With `CCOc1cc(Cl)c(NC(=O)c2ccco2)cc1OCC` as the molecule, how does the “activity change, negative = inhibition” value read?
Answer: inactive: 25.8%

Question: With `CN1CCN(c2ccc(S(=O)(=O)N3CCCCC3)cc2NC(=O)/C=C/c2ccc(Cl)c([N+](=O)[O-])c2)CC1` as the molecule, how does the Potency read?
Answer: active: 5.86 µM

Question: With `OCCC1CN(Cc2cccn2-c2cccnc2)CCN1CCc1ccccc1` (centres undefined) as the molecule, how does the Potency read?
Answer: inconclusive: 18.5 µM [inhibitor, partial curve, poor fit]

Question: For `CC(C)n1nccc1N(Cc1ccc(Br)cc1)S(=O)(=O)c1ccccc1`, which Potency is on record?
Answer: active: 5.22 µM

Question: Which Potency does the source give for `Cc1cc(NC(=O)c2ccc(Cl)cc2Cl)no1` here?
Answer: active: 3.7 µM

Question: With `CN(Cc1nc(-c2ccncc2)no1)S(=O)(=O)c1ccccc1` as the molecule, how does the Potency read?
Answer: inconclusive: 18.5 µM [inhibitor, single point]

Question: With `COc1ccccc1NC(=S)N(Cc1ccccc1)Cc1ccccn1` as the molecule, how does the Potency read?
Answer: inconclusive: 13.1 µM [inhibitor, single point]

Question: With `C=CCn1c(-c2ccccc2)nc(=S)c2c1CC(C)(C)OC2` as the molecule, how does the Potency read?
Answer: inconclusive: 0.0041 µM [inhibitor, full curve]

Question: Which Potency does the source give for `Cc1ccc(C)c2[nH]c(=O)c(CN(Cc3cccnc3)C(=S)NCc3ccco3)cc12` here?
Answer: active: 3.7 µM

Question: Which Potency does the source give for `Cc1c(Cl)cccc1NC(=S)NC(=O)CCN1C(=O)c2ccccc2C1=O` here?
Answer: inconclusive: 10.4 µM [inhibitor, single point]

Question: For `CNC(=O)Oc1ccc(N(C)C)cc1C(C)C`, which Potency is on record?
Answer: inconclusive: 8.28 µM [inhibitor, partial curve, poor fit]

— PubChem BioAssay AID504834 (National Center for Advancing Translational Sciences (NCATS), 2011)
